Assay results: the supplement of paper PMC12067093, “Discovery and optimisation of a covalent ligand for TRIM25 and its application to targeted protein ubiquitination” (Chemical Science, 2025)
The other results are listed elsewhere or left out.

Protein sequences, listed by entry. Tags and fused reporters are not part of them. Lines headed by an entry give the natural chain unless they say otherwise; changes in a name come on top.
UniProt P23528, whole entry, looked up: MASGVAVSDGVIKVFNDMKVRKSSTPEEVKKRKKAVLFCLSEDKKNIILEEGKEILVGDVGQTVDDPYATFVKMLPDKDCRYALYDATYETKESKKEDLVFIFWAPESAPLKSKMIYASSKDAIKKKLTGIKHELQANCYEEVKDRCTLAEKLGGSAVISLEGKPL
UniProt Q96JM3: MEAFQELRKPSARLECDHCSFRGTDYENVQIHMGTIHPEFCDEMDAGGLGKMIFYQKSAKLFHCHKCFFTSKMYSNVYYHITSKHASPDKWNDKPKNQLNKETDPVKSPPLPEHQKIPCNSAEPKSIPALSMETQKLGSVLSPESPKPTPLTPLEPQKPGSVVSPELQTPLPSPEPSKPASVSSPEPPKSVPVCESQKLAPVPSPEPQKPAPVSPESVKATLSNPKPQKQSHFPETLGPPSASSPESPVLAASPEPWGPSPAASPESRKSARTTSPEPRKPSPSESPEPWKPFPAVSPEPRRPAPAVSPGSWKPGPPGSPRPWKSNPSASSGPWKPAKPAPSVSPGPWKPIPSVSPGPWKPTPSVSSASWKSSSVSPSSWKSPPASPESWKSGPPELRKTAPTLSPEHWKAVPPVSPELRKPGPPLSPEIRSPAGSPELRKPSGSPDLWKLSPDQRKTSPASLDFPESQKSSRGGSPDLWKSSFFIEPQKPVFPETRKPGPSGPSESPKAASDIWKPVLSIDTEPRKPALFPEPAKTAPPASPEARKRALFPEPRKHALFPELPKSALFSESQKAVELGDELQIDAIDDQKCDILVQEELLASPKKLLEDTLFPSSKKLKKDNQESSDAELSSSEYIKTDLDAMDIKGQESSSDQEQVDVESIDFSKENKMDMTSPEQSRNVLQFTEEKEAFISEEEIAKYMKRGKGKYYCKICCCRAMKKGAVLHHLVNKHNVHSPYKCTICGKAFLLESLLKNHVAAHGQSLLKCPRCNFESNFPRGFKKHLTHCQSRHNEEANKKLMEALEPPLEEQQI
UniProt O75153: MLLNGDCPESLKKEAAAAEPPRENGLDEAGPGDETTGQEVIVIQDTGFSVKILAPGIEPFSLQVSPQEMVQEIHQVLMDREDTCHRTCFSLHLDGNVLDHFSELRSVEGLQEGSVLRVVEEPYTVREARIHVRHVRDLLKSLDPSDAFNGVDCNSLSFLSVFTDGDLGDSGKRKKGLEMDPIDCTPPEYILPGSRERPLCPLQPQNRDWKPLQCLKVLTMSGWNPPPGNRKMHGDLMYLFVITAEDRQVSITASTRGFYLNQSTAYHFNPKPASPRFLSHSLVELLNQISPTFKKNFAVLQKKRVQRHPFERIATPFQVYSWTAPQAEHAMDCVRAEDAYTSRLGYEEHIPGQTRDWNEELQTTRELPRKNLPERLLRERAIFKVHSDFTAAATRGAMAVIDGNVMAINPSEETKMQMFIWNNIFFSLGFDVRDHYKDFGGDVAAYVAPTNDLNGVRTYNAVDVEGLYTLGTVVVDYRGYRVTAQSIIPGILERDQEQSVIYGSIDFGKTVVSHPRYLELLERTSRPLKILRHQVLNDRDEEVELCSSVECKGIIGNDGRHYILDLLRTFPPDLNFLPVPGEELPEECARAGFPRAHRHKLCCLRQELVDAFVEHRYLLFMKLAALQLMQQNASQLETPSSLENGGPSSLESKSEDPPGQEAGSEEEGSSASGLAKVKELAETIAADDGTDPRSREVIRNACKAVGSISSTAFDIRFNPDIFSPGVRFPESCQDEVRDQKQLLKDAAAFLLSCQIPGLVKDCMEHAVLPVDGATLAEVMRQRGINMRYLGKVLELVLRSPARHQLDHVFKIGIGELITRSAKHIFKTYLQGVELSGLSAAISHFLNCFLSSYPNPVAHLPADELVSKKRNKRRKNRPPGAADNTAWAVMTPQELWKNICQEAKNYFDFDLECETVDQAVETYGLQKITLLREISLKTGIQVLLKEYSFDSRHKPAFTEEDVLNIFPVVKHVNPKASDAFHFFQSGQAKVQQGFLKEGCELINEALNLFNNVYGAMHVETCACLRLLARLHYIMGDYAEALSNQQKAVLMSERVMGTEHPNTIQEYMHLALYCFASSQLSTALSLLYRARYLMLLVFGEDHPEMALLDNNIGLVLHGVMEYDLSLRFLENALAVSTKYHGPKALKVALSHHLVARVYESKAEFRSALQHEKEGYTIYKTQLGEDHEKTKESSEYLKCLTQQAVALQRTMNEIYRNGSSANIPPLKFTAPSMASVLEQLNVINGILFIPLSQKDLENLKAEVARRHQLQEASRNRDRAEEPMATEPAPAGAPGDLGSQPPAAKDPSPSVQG
UniProt O76071: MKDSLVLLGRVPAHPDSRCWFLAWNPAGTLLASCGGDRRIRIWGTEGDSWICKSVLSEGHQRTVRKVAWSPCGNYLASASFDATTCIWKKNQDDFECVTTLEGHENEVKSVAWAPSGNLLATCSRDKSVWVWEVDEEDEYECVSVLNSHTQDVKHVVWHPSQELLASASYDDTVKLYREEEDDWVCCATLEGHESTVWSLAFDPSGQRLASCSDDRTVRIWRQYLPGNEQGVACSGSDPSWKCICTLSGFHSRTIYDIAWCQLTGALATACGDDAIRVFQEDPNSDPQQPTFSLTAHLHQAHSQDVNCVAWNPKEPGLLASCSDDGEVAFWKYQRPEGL
UniProt Q00610: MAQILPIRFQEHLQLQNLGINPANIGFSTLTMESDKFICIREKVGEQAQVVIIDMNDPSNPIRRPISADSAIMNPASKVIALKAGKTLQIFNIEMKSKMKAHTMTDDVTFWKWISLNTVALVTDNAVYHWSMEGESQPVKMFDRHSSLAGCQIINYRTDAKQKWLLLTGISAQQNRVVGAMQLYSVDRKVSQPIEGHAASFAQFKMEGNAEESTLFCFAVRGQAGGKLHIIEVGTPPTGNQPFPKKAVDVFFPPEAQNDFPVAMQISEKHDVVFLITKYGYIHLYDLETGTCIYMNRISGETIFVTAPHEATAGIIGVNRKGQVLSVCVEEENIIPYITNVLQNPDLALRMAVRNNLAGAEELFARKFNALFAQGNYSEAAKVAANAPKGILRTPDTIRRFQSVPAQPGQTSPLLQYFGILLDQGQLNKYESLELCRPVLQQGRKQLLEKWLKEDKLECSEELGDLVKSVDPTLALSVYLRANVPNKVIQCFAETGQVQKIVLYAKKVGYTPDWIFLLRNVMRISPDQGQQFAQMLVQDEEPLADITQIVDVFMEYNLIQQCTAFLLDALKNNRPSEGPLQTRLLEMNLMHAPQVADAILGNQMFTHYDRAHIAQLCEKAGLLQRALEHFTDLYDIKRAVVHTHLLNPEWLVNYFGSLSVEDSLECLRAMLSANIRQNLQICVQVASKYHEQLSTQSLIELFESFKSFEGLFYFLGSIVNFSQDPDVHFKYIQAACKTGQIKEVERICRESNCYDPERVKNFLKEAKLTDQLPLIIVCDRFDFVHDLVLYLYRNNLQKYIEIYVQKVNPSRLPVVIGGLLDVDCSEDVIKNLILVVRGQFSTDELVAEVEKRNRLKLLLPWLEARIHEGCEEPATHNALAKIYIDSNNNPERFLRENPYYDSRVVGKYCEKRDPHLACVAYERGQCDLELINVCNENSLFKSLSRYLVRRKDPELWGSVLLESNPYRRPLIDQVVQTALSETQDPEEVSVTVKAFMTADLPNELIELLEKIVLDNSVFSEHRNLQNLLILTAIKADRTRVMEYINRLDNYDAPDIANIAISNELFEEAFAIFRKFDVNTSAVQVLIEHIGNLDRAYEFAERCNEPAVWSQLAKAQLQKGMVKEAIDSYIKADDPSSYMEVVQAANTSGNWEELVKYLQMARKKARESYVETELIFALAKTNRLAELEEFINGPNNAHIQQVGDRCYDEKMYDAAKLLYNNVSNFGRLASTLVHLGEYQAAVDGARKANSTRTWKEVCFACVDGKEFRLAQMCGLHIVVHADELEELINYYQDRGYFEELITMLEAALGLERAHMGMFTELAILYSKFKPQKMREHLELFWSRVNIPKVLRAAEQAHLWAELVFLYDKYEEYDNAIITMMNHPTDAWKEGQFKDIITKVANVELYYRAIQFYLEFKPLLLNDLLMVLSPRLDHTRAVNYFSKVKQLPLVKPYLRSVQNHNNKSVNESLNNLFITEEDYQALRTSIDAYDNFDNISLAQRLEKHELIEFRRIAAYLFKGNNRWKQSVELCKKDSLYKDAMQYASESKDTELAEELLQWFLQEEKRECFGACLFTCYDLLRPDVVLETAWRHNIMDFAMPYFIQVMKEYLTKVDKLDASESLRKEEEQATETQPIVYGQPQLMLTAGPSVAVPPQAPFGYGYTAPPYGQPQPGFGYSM
UniProt Q6FI81: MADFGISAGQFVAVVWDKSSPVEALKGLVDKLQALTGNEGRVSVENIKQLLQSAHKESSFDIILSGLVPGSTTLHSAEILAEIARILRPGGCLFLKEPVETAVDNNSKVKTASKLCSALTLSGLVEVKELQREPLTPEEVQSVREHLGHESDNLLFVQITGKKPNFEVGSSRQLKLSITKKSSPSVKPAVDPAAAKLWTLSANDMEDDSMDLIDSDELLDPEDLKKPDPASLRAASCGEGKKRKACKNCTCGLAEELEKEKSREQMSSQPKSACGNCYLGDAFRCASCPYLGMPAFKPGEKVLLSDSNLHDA
UniProt Q7Z460: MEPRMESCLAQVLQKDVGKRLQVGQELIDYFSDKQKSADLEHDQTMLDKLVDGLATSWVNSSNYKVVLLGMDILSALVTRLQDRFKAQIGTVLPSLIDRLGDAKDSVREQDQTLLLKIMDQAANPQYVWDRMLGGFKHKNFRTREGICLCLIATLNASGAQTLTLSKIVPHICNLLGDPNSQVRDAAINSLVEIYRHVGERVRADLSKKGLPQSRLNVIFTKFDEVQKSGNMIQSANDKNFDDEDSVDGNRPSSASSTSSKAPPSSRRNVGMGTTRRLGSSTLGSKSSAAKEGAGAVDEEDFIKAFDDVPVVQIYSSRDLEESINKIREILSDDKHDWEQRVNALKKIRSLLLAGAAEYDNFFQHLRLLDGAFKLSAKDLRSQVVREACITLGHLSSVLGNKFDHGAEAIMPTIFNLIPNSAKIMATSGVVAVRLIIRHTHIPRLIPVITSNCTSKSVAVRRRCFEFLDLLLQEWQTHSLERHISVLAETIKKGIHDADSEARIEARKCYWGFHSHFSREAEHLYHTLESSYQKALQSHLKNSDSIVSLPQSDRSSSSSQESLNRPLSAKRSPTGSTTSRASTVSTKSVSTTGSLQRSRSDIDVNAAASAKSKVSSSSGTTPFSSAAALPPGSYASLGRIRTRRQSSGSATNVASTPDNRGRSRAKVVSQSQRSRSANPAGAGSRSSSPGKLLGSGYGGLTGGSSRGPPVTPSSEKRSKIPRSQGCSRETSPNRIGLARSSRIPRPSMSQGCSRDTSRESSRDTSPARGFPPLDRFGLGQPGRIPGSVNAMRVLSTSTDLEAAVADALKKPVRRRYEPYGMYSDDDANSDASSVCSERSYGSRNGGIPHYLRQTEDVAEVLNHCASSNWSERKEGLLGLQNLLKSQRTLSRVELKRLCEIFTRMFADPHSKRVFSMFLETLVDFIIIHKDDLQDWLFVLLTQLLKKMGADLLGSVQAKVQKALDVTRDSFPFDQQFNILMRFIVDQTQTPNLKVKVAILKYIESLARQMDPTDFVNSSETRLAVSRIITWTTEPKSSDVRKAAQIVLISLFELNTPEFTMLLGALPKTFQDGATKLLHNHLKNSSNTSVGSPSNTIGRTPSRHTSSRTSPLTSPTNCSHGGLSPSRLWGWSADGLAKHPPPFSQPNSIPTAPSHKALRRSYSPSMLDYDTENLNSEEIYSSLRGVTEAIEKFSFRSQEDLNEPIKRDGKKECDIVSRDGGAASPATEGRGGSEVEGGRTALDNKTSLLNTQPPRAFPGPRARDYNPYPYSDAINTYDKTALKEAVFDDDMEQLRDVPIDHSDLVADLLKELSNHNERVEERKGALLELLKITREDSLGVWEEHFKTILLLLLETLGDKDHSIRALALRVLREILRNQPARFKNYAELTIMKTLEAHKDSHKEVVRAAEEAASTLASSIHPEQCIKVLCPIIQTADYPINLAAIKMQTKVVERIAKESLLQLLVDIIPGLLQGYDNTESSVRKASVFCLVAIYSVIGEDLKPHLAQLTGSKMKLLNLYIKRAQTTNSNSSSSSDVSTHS
UniProt Q8NET6: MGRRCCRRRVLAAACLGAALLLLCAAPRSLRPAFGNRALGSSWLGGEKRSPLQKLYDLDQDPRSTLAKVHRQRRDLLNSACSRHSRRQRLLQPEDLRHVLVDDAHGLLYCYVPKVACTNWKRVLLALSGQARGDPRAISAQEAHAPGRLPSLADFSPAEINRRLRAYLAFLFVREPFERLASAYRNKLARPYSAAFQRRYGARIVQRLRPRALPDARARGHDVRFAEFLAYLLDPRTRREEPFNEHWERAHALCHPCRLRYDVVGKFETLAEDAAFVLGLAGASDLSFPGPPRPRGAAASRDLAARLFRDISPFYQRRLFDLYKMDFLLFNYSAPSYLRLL

Compound: CC1Cc2ccccc2N1C(=O)C1CCCN(C1)C(=O)CCl (mixture of isomers) [TRIM25 ligand 11 (diastereomer mixture)]
Assay: probe-labelled cysteine peptide fold change vs DMSO (competition) (log2 fold change); higher = less target engagement (more negative = stronger competition)
Conditions: THP-1, incubation time: 4 h
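Further: competitive chemoproteomic profiling in live THP-1 cells with an iodoacetamide desthiobiotin (IA-DTB) probe, comparing probe-labelled peptide intensities in compound-treated cells against DMSO-treated controls.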

Target | probe-labelled cysteine peptide fold change (10 µM) | probe-labelled cysteine peptide fold change (50 µM)
CFL1_P23528_139_HELQANCYEEVKDR (UniProt P23528) | -0.0231 | 0.184
CLNS1A_P54105_73_DRSDCLGEHLYVMVNAK (UniProt P54105) | -0.0291 | -0.193
CHCHD3_Q9NX63_183_RYESHPVCADLQAK (UniProt Q9NX63) | -0.124 | 0.11
CHERP_Q8IWX8_190_SPPHCELMAGHLR (UniProt Q8IWX8) | -0.011 | -0.113
CHAMP1_Q96JM3_592_CDILVQEELLASPK (UniProt Q96JM3) | -0.0146 | -0.102
CHD3_Q12873_1464_HLCEPGADGSETFADGVPR (UniProt Q12873) | -0.0391 | -0.19
CHAMP1_Q96JM3_41_GTDYENVQIHMGTIHPEFCDEMDAGGLGK (UniProt Q96JM3) | 0.226 | -0.0855
CKAP5_Q14008_1203_TQMSSCVAK (UniProt Q14008) | 0.0255 | -0.0344
CLUH_O75153_588_TFPPDLNFLPVPGEELPEECAR (UniProt O75153) | 0.212 | 0.0614
CLASP2_O75122_1184_VLCPIIQTADYPINLAAIK (UniProt O75122) | 0.0331 | 0.0662
CIAO1_O76071_261_TIYDIAWCQLTGALATACGDDAIR (UniProt O76071) | 0.0119 | -0.00201
CGGBP1_Q9UFW8_43+46_LFCTSCNVVLNHVR (UniProt Q9UFW8) | 0.00061 | 0.227
CHSY1_Q86X52_48_ASPEGCR (UniProt Q86X52) | -0.172 | 0.088
CLTC_Q00610_1257_EVCFACVDGK (UniProt Q00610) | -0.0168 | 0.0733
CHM_P24386_302_RMLMKFLTFCMEYEK (UniProt P24386) | -0.00353 | 0.00272
CLUH_O75153_333_IATPFQVYSWTAPQAEHAMDCVR (UniProt O75153) | -0.222 | -0.317
CKAP5_Q14008_1019_STPTDLILCVPHLYSCLEDR (UniProt Q14008) | -0.0864 | 0.159
CHD8_Q9HCK8_1902_EQVLCHPLLEDR (UniProt Q9HCK8) | 0.0843 | -0.143

Target | probe-labelled cysteine peptide fold change (10 µM) | probe-labelled cysteine peptide fold change (50 µM)
CIAPIN1_Q6FI81_288_CASCPYLGMPAFKPGEK (UniProt Q6FI81) | -0.0087 | -0.228
CLTC_Q00610_292_YGYIHLYDLETGTCIYMNR (UniProt Q00610) | 0.262 | 0.218
CLUH_O75153_200_ERPLCPLQPQNR (UniProt O75153) | -0.0542 | 0.097
CHD4_Q14839_1594_STAPETAIECTQAPAPASEDEK (UniProt Q14839) | 0.0047 | -0.0977
CIZ1_Q9ULV3_687_QSLRPFCTVCNR (UniProt Q9ULV3) | -0.128 | 0.068
CIT_O14578_1272_CAELEEALQK (UniProt O14578) | -0.0113 | 0.0758
CKAP5_Q14008_1768_TLLHTLCK (UniProt Q14008) | 0.0246 | -0.0622
CIAO1_O76071_19_CWFLAWNPAGTLLASCGGDRR (UniProt O76071) | -0.246 | -0.477
CHI3L1_P36222_41_EGDGSCFPDALDR (UniProt P36222) | 0.0668 | -0.042
CLASP1_Q7Z460_453_LIPVITSNCTSK (UniProt Q7Z460) | 0.139 | 0.144
CHST13_Q8NET6_81_DLLNSACSR (UniProt Q8NET6) | 0.0402 | -0.0104
CLCN3_P51790_783_QCLVTHNGR (UniProt P51790) | -0.132 | 0.169
CFL1_P23528_147_DRCTLAEK (UniProt P23528) | 0.00754 | -0.221
CHD4_Q14839_1019_CCNHPYLFPVAAMEAPK (UniProt Q14839) | -0.112 | -0.0204
CLIP2_Q9UDT6_272_YFQCPPK (UniProt Q9UDT6) | 0.0138 | -0.0164
CLASP1_Q7Z460_509_CYWGFHSHFSR (UniProt Q7Z460) | 0.286 | 0.256
CLPB_Q9H078_647_VVNQLAAAYEQDLLPGGCTLR (UniProt Q9H078) | 0.543 | 0.0536

Full records as entered above. Order of values: probe-labelled cysteine peptide fold change (10 µM) | probe-labelled cysteine peptide fold change (50 µM)
CIAPIN1_Q6FI81_288_CASCPYLGMPAFKPGEK (UniProt Q6FI81) as listed: -0.0087 | -0.228
CHST13_Q8NET6_81_DLLNSACSR (UniProt Q8NET6) as listed: 0.0402 | -0.0104
CHD4_Q14839_1594_STAPETAIECTQAPAPASEDEK (UniProt Q14839) as listed: 0.0047 | -0.0977
